Data: PubChem BioAssay AID328 (DTP/NCI, 2004)
The list does not hold the whole screen: it is rich in T/C values a quarter to a half above the control, in often repeated tests (any T/C) and in doses without a T/C. Other doses and runs of a compound stand elsewhere. T/C: endpoint of the treated group in % of that of the vehicle group. Some entries give survivors of the animals treated and no T/C: the source holds a T/C of zero for them, seemingly a mark for toxic or unscored doses. Some doses without a T/C left all or most animals alive at the check, yet need not have been tolerated: the source hardly ever lists a survival T/C far under the control, and the zero likely stands for such cases as well. Survivors were counted at the toxicity check, usually on the fifth day, unless a day is given; later deaths do not show. Schedules are NCI's codes, read here as Q, the interval in days (D) or hours (H), X, the number of doses. Some entries hold several experiments; the results are listed from low to high. For survival time, the PubChem record calls one and a half times the control and up active, and a quarter to a half above the control has no call in these data; cut-offs in other NCI protocols can differ.

Test system: BDF1 mice, P388 leukemia ip, median survival T/C
Assay: NCI In Vivo Anticancer Drug Screen. Data for tumor model P388 Leukemia (intraperitoneal) in B6D2F1 (BDF1) mice
Details: higher T/C = longer survival
Summary of the method: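 Each value expresses how treatment altered survival: treated-mouse outcome over vehicle-mouse outcome, both groups bearing the transplanted tumour.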

[1] = T/C endpoint: median survival time, dose: 400.0 mg/kg/injection, schedule: Q04DX002 (ip), vehicle: saline with Tween-80
[2] = T/C endpoint: median survival time, dose: 400.0 mg/kg/injection, schedule: Q01DX009 (ip), vehicle: saline with Tween-80
[3] = T/C endpoint: median survival time, dose: 200.0 mg/kg/injection, schedule: Q01DX009 (ip), vehicle: saline with Tween-80
[4] = T/C endpoint: median survival time, dose: 50.0 mg/kg/injection, schedule: Q01DX009 (ip), vehicle: saline with Tween-80
[5] = T/C endpoint: median survival time, dose: 100.0 mg/kg/injection, schedule: Q01DX009 (ip), vehicle: saline with Tween-80
[6] = T/C endpoint: median survival time, dose: 100.0 mg/kg/injection, schedule: Q01DX009 (ip), vehicle: Klucel (hydroxypropylcellulose) (HPC)

In the case of O=S(=O)(O)C1CCCCC1O (centres undefined), the survivor count [1] is reported as 1 of 6.
O=c1[nH]c(=O)c(C2OC(CO)C(O)C2O)co1 (centres undefined) was tested, and the T/C (T/C endpoint: median survival time, dose: 4.0 mg/kg/injection, schedule: Q04DX003 (ip), vehicle: saline with Tween-80) was 133 % of control, the T/C (T/C endpoint: median survival time, dose: 5.0 mg/kg/injection, schedule: Q04DX003 (ip), vehicle: saline with Tween-80) was 133 % of control and the T/C (T/C endpoint: median survival time, dose: 6.0 mg/kg/injection, schedule: Q04DX003 (ip), vehicle: saline with Tween-80) was 133 % of control. For the same compound, the T/C (T/C endpoint: median survival time, dose: 6.7 mg/kg/injection, schedule: Q04DX003 (ip), vehicle: saline with Tween-80) was 137 % of control, the T/C (T/C endpoint: median survival time, dose: 10.0 mg/kg/injection, schedule: Q04DX003 (ip), vehicle: saline with Tween-80) was 137 and 141 % of control and the T/C (T/C endpoint: median survival time, dose: 15.0 mg/kg/injection, schedule: Q04DX003 (ip), vehicle: saline with Tween-80) was 145 % of control.
With CCCCC(=O)NC(=O)c1ccccc1 the survivor count [2] was 6 of 6.
With OCC[P+](c1ccccc1)(c1ccccc1)c1ccccc1 the survivor count (T/C endpoint: median survival time, dose: 100.0 mg/kg/injection, schedule: Q01DX001 (ip), vehicle: saline with Tween-80) was 0 of 6, the survivor count (T/C endpoint: median survival time, dose: 100.0 mg/kg/injection, schedule: Q01DX001 (ip), vehicle: saline) was 1 of 6 and the survivor count (T/C endpoint: median survival time, dose: 200.0 mg/kg/injection, schedule: Q01DX001 (ip), vehicle: saline with Tween-80) was 0 of 6. For the same compound, the survivor count (T/C endpoint: median survival time, dose: 400.0 mg/kg/injection, schedule: Q01DX001 (ip), vehicle: saline with Tween-80) was 0 of 6.
CS(=O)(=O)Nc1ccccc1[N+](=O)[O-] was tested, and the survivor count [3] was 3 of 6 and the survivor count [2] was 0 of 6.
With Clc1ccc2nnnn2n1 the T/C (T/C endpoint: median survival time, dose: 32.5 mg/kg/injection, schedule: Q01DX009 (ip), vehicle: saline with Tween-80) was 132 % of control, the T/C (T/C endpoint: median survival time, dose: 65.0 mg/kg/injection, schedule: Q01DX009 (ip), vehicle: saline with Tween-80) was 126 and 137 % of control and the T/C (T/C endpoint: median survival time, dose: 130.0 mg/kg/injection, schedule: Q01DX009 (ip), vehicle: saline with Tween-80) was 127 % of control. For the same compound, the T/C (T/C endpoint: median survival time, dose: 160.0 mg/kg/injection, schedule: Q01DX009 (ip), vehicle: saline with Tween-80) was 128 % of control.
In the case of CC(C(=O)c1cccs1)C(O)(C(F)(F)F)C(F)(F)F (centres undefined), the survivor count (T/C endpoint: median survival time, dose: 400.0 mg/kg/injection, schedule: Q04DX003 (ip), vehicle: Klucel (hydroxypropylcellulose) (HPC)) is reported as 6 of 6.
In the case of COc1ccc(O)c(/C=C/c2cc[n+](C)cc2)c1, the survivor count [1] is reported as 4 of 6.
S=c1cc(-c2cccs2)ss1 was tested, and the T/C (T/C endpoint: median survival time, dose: 25.0 mg/kg/injection, schedule: Q01DX009 (ip), vehicle: saline) was 142 % of control.
For CCCCCCCCCC[N+](C)(C)CCC[N+](C)(C)CCCCCCCCCC, the survivor count (T/C endpoint: median survival time, dose: 12.5 mg/kg/injection, schedule: Q01DX009 (ip), vehicle: saline) was 3 of 6, the survivor count [4] was 0 of 6 and the survivor count [5] was 0 of 6. The survivor count [3] was 0 of 6.
In the case of CCCCCCCCNC(=O)C1OC(n2cnc3c(N)ncnc32)C(O)C1O (centres undefined), the survivor count (T/C endpoint: median survival time, dose: 400.0 mg/kg/injection, schedule: Q01DX009 (ip), vehicle: saline) is reported as 2 of 6.
For CN1CCOC1=Nc1ccc(Cl)cc1, the survivor count (T/C endpoint: median survival time, dose: 200.0 mg/kg/injection, schedule: Q04DX003 (ip), vehicle: saline with Tween-80) was 6 of 6.
For CS(=O)(=O)OCC(O)C(O)C(O)C(O)COS(C)(=O)=O (centres undefined), the T/C (T/C endpoint: median survival time, dose: 100.0 mg/kg/injection, schedule: Q01DX010 (ip), vehicle: saline) was 129 % of control and the T/C (T/C endpoint: median survival time, dose: 200.0 mg/kg/injection, schedule: Q01DX010 (ip), vehicle: saline) was 145 % of control.
CCC1(O)CC(OC2CC(N(C)C)C(OC3CC4OC5CC(=O)C(C)OC5OC4C(C)O3)C(C)O2)c2c(cc3c(c2O)C(=O)c2c(O)ccc(O)c2C3=O)C1C(=O)OC (centres undefined) was tested, and the T/C (T/C endpoint: mean survival time, dose: 0.19 mg/kg/injection, schedule: Q01DX010 (ip), vehicle: saline) was 125 % of control, the survivor count (T/C endpoint: mean survival time, dose: 3.0 mg/kg/injection, schedule: Q01DX010 (ip), vehicle: saline) was 6 of 6 and the survivor count (T/C endpoint: mean survival time, dose: 6.0 mg/kg/injection, schedule: Q01DX010 (ip), vehicle: saline) was 0 of 6. The survivor count (T/C endpoint: mean survival time, dose: 12.0 mg/kg/injection, schedule: Q01DX010 (ip), vehicle: saline) was 0 of 6, the T/C (T/C endpoint: median survival time, dose: 0.75 mg/kg/injection, schedule: Q01DX001 (ip), vehicle: saline, evaluated on day 30) was 133 % of control and the T/C (T/C endpoint: median survival time, dose: 0.75 mg/kg/injection, schedule: Q01DX001 (ip), vehicle: saline, run until all animals had died) was 125 % of control. The T/C (T/C endpoint: median survival time, dose: 1.04 mg/kg/injection, schedule: Q04DX003 (ip), vehicle: water) was 148 % of control, the T/C (T/C endpoint: median survival time, dose: 1.44 mg/kg/injection, schedule: Q04DX003 (ip), vehicle: water) was 140 % of control and the T/C (T/C endpoint: median survival time, dose: 1.5 mg/kg/injection, schedule: Q01DX001 (ip), vehicle: saline, evaluated on day 30) was 133 % of control. The T/C (T/C endpoint: median survival time, dose: 1.5 mg/kg/injection, schedule: Q01DX001 (ip), vehicle: saline, run until all animals had died) was 135 % of control, the T/C (T/C endpoint: median survival time, dose: 2.5 mg/kg/injection, schedule: Q01DX001 (ip), vehicle: saline) was 133 % of control and the T/C (T/C endpoint: median survival time, dose: 2.88 mg/kg/injection, schedule: Q04DX003 (ip), vehicle: water) was 135 % of control. The survivor count (T/C endpoint: median survival time, dose: 3.6 mg/kg/injection, schedule: Q04DX003 (ip), vehicle: water) was 8 of 8, the survivor count (T/C endpoint: median survival time, dose: 4.0 mg/kg/injection, schedule: Q04DX003 (ip), vehicle: water) was 8 of 8 and the survivor count (T/C endpoint: median survival time, dose: 4.8 mg/kg/injection, schedule: Q04DX003 (ip), vehicle: water) was 7 of 8. The survivor count (T/C endpoint: median survival time, dose: 6.0 mg/kg/injection, schedule: Q04DX003 (ip), vehicle: water) was 1 of 8.
For CC(=O)C(=O)NC1/C=C(C)\C=C/C(O)C/C=C(C)\C=C/C(O)CC2OC(=O)C1(C)C(=O)C2C (centres undefined), the T/C (T/C endpoint: median survival time, dose: 75.0 mg/kg/injection, schedule: Q01DX009 (ip), vehicle: Klucel (hydroxypropylcellulose) (HPC)) was 125 % of control, the T/C [6] was 129 and 146 % of control and the survivor count [6] was 3 of 3. The T/C (T/C endpoint: median survival time, dose: 125.0 mg/kg/injection, schedule: Q01DX009 (ip), vehicle: Klucel (hydroxypropylcellulose) (HPC)) was 129 % of control, the T/C (T/C endpoint: median survival time, dose: 150.0 mg/kg/injection, schedule: Q01DX009 (ip), vehicle: Klucel (hydroxypropylcellulose) (HPC)) was 135 % of control and the survivor count (T/C endpoint: median survival time, dose: 400.0 mg/kg/injection, schedule: Q01DX009 (ip), vehicle: Klucel (hydroxypropylcellulose) (HPC)) was 3 of 3.
CSC(=S)N/N=C(\C)C1CCCC[N-]1.[I][Zn][I] (centres undefined) was tested, and the T/C [4] was 97, 117, 125, 130 % of control, the survivor count [5] was 5 of 6 and 6 of 6 and the survivor count [3] was 0 of 6.
In the case of CCn1nnc2c(N(C)C)nc(N)nc21, the survivor count (T/C endpoint: median survival time, dose: 200.0 mg/kg/injection, schedule: Q04DX003 (ip), vehicle: Klucel (hydroxypropylcellulose) (HPC)) is reported as 0 of 6.
In the case of COc1ccc(NC(=O)Oc2ccccc2Cc2ccccc2)cc1, the survivor count (T/C endpoint: median survival time, dose: 50.0 mg/kg/injection, schedule: Q04DX003 (ip), vehicle: Klucel (hydroxypropylcellulose) (HPC)) is reported as 6 of 6.
For O=C1c2cccc(O)c2C(=O)c2c(O)cc(CO)cc21, the survivor count (T/C endpoint: median survival time, dose: 5.0 mg/kg/injection, schedule: Q01DX010 (ip), vehicle: other) was 4 of 4, the T/C (T/C endpoint: median survival time, dose: 20.0 mg/kg/injection, schedule: Q01DX010 (ip), vehicle: other) was 133 % of control and the T/C (T/C endpoint: median survival time, dose: 40.0 mg/kg/injection, schedule: Q01DX010 (ip), vehicle: other) was 136 % of control. The T/C (T/C endpoint: median survival time, dose: 80.0 mg/kg/injection, schedule: Q01DX010 (ip), vehicle: other) was 129 and 131 % of control, the survivor count (T/C endpoint: median survival time, dose: 100.0 mg/kg/injection, schedule: Q01DX010 (ip), vehicle: carboxymethylcellulose (CMC)) was 6 of 6 and the survivor count (T/C endpoint: median survival time, dose: 150.0 mg/kg/injection, schedule: Q01DX010 (ip), vehicle: carboxymethylcellulose (CMC)) was 6 of 6.
In the case of NC(Cc1c[nH]c2ccc(N(CCCl)CCCl)cc12)C(=O)O (centres undefined), the survivor count (T/C endpoint: median survival time, dose: 2.0 mg/kg/injection, schedule: Q01DX010 (ip), vehicle: saline) is reported as 6 of 6 and the survivor count (T/C endpoint: median survival time, dose: 4.0 mg/kg/injection, schedule: Q01DX010 (ip), vehicle: saline) is reported as 6 of 6.
